In patent publication US10774098B2, “Nahlsgen optical resolution method” (KYOTO UNIVERSITY, priority 2016, dated 2020):

System: normal human epidermal cells
Assay: protein content in the disrupted cell suspension (BCA Protein Assay)
Format: cell-based
Details: Conc. 10.00 μmol/L, cultivation for 24 hours

## COP(=O)(CC[C@H](N)C(=O)O)Oc1cccc(CC(=O)O)c1 (mixture of isomers) [Nahlsgen, DL-2-amino-4-[(RSp)-(3-carboxymethylphenoxy)(methoxy)phosphoryl]butanoic acid]
  Protein (μg/well) Mean: 13.9 μg/well
